This is a selection; strong and weak results do not stand in their true shares. For part of these data: At the low end of the ranking the order means little. The list shows a part of the results. For part of these data: The exact form of the protein is not confirmed.
Columns and labels:
Assay in all cases: DAPPL (digital affinity profiling via proximity ligation, sequencing)
Conditions in all cases: 10 mM Tris-HCl pH 7.5, 50 mM NaCl, 1 mM DTT, 4% glycerol, room temperature, 30 min; GST-TFs on glutathione beads, 16-mer random dsDNA library, 0.1% …; high values mean tight binding; double strand, one strand shown; scale: fold enrichment (6-mer frequency, TF over GST control)
GABPA = target: T1, GABPA (UniProt Q06546)
T1 sequence: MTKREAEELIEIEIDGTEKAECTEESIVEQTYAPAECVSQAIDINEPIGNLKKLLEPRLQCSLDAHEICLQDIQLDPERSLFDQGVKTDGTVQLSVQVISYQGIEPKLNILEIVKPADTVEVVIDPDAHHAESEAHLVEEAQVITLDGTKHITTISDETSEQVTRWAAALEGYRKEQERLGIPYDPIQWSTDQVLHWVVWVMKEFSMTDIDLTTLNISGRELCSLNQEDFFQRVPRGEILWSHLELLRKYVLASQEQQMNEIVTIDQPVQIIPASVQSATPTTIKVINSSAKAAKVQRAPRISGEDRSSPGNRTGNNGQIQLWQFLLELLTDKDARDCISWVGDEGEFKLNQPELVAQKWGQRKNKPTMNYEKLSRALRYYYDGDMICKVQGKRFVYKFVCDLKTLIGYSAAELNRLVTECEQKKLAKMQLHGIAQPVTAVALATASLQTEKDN

ETS1 = target: T2, ETS1 (UniProt P14921)
T2 sequence: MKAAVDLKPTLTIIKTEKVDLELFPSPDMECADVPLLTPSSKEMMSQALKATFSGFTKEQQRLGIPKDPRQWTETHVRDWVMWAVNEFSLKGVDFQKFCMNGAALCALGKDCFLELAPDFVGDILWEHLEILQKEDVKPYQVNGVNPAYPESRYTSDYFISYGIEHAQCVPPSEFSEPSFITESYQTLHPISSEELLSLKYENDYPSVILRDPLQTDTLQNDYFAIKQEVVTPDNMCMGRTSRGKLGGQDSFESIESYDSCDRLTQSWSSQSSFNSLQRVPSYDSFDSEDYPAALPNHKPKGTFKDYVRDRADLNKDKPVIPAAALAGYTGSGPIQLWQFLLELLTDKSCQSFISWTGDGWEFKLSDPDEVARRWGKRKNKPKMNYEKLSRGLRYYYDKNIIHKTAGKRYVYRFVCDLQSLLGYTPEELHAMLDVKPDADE

SPDEF = target: T3, SPDEF (UniProt O95238)
T3 sequence: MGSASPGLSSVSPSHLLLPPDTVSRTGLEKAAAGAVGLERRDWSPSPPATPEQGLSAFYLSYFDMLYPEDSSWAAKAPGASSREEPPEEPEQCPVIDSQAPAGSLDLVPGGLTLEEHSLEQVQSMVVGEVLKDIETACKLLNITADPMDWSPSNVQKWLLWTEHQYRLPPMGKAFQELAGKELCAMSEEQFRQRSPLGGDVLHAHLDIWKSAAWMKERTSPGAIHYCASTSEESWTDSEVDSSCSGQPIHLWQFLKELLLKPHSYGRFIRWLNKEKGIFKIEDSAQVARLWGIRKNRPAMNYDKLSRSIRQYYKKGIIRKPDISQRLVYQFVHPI

| Sequence | binding signal (GABPA) | binding signal (ETS1) | binding signal (SPDEF) |
| --- | --- | --- | --- |
| TAGGGA | 0.803 | 0.885 | 0.808 |
| TGAGTT | 0.417 | 0.398 | 0.403 |
| CGGACT | 0.84 | 0.778 | 0.886 |
| GGCGCA | 0.605 | 0.59 | 0.592 |
| GTCCGA | 0.845 | 0.854 | 0.868 |
| CGGGAC | 0.567 | 0.53 | 0.61 |
| AGAGAC | 0.476 | 0.493 | 0.442 |
| TCGTGC | 0.831 | 0.769 | 0.773 |
| GGGACG | 0.462 | 0.449 | 0.478 |
| GTCGAA | 0.666 | 0.614 | 0.634 |
| AGTGGA | 0.755 | 0.778 | 0.663 |
| GTAGTA | 0.896 | 0.986 | 0.942 |
| ATGAGA | 0.888 | 0.922 | 0.802 |
| TGAGAC | 0.545 | 0.551 | 0.525 |
| AGCCCG | 0.943 | 0.869 | 0.825 |
| CGCCAG | 0.662 | 0.646 | 0.691 |
| TGTGAG | 0.363 | 0.314 | 0.322 |
| CTGGAG | 0.681 | 0.669 | 0.643 |
| GCCAAA | 0.873 | 0.972 | 0.863 |
| CAGAGG | 0.637 | 0.587 | 0.594 |

| Sequence | binding signal (GABPA) | binding signal (ETS1) | binding signal (SPDEF) |
| --- | --- | --- | --- |
| AGCCGC | 0.79 | 0.793 | 0.814 |
| AGAAAG | 0.88 | 0.847 | 0.86 |
| GGGAGA | 0.342 | 0.311 | 0.303 |
| GGCCCA | 0.89 | 0.888 | 0.791 |
| GCACAG | 0.711 | 0.745 | 0.756 |
| ACGGAG | 0.39 | 0.381 | 0.36 |
| GAGGGA | 0.465 | 0.52 | 0.45 |
| GAACGG | 0.627 | 0.564 | 0.619 |
| AGAGCG | 0.43 | 0.489 | 0.449 |
| TCGGTT | 0.868 | 0.836 | 0.762 |
| GAGGTG | 0.506 | 0.455 | 0.523 |
| GCTGTC | 0.934 | 1.02 | 0.879 |
| GCGGTT | 0.775 | 0.67 | 0.784 |
| TCAGAG | 0.79 | 0.778 | 0.731 |
| CAAGCG | 0.87 | 0.903 | 0.815 |
| CCAGGA | 0.632 | 0.68 | 0.813 |
| GGCCGG | 0.497 | 0.569 | 0.604 |
| TCGGAC | 0.379 | 0.358 | 0.357 |
| TGGACG | 0.871 | 0.944 | 0.746 |
| GGGAGG | 0.31 | 0.318 | 0.287 |

Another view of some results above:
Sequence	binding signal (GABPA)	binding signal (ETS1)	binding signal (SPDEF)
CCAGGA	0.632	0.68	0.813
GGCCGG	0.497	0.569	0.604

Further results

| Sequence | binding signal (GABPA) | binding signal (ETS1) | binding signal (SPDEF) |
| --- | --- | --- | --- |
| GTGGGG | 0.649 | 0.567 | 0.524 |
| GGCGAC | 0.81 | 0.786 | 0.894 |
| CAGAGA | 0.619 | 0.587 | 0.609 |
| GGTGCC | 0.769 | 0.787 | 0.756 |
| GAGGAT | 0.582 | 0.618 | 0.664 |
| AAAGAG | 0.988 | 0.941 | 0.866 |
| CAACGG | 0.959 | 1.04 | 0.931 |
| GAAGGG | 0.855 | 0.825 | 0.751 |
| GAGCAG | 0.669 | 0.62 | 0.612 |
| GCTGGA | 0.777 | 0.817 | 0.748 |
| CAGGCC | 0.73 | 0.741 | 0.676 |
| AGGTAG | 0.689 | 0.652 | 0.663 |
| AAGACA | 0.999 | 0.982 | 0.93 |
| AGAGTC | 0.479 | 0.419 | 0.452 |
| GGGACT | 0.712 | 0.662 | 0.639 |
| GACTAA | 0.917 | 0.849 | 0.912 |
| CGAGTG | 0.825 | 0.78 | 0.763 |
| GTGAAA | 0.762 | 0.737 | 0.694 |
| ACCATG | 0.858 | 0.907 | 0.876 |
| GAGAGT | 0.321 | 0.325 | 0.345 |
